Results are given in words; binding and its absence hold for the method and conditions named.
Molecular target: NKG2D on human NK cells (human (endogenous in NK cells and CD8+ T cells from PBMC)) (UniProt P26718)
Test: flow cytometry on cells; MICA-129Met-Fc, MICA-129Val-Fc or OVA-Fc at several concentrations on human NK cells; FITC goat anti-mouse IgG; 4°C; only the binder purified

Protein sequences, listed by entry. Tags and fused reporters are not part of them.
UniProt P26718: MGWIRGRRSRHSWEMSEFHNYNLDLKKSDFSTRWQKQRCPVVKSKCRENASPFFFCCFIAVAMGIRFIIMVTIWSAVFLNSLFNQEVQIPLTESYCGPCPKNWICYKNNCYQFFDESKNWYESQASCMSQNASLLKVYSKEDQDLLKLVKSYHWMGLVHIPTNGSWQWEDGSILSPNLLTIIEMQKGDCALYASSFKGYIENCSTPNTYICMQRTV

OVA-mIgG2a-Fc fusion protein (from UniProt P01012 1-386)
binding: no binding
